Measured values: patent US11897859B1, “Coumarin compounds as antibacterial agents” (KING FAISAL UNIVERSITY, priority 2023, dated 2024)
In brackets after ≈: the same amount, converted by molar mass.

How the values were obtained:
Test in all cases: In vitro antibacterial activity (CLSI M07-A10 dilution), MIC
Assay type in all cases: cell-based
[1] = tested on: Enterococcus faecium ATCC 35667; conditions: ATCC35667
[2] = tested on: Escherichia coli MTCC 443; conditions: MTCC443
[3] = tested on: Bacillus subtilis MTCC 441; conditions: MTCC441
[4] = tested on: Staphylococcus aureus ATCC 29213; conditions: ATCC29213
[5] = tested on: Enterococcus faecium ATCC 51559 (VRE resistant)
[6] = tested on: Staphylococcus aureus ATCC BAA-1556 (MERSA resistant); conditions: ATCCBAA1556
[7] = tested on: Staphylococcus epidermidis
[8] = tested on: Pseudomonas aeruginosa MTCC 741; conditions: MTCC741

For `CN[C@H](CC(C)C)C(=O)N[C@H]1C(=O)N[C@@H](CC(N)=O)C(=O)N[C@H]2C(=O)N[C@H]3C(=O)N[C@H](C(=O)N[C@H](C(=O)O)c4cc(O)cc(O)c4-c4cc3ccc4O)[C@H](O)c3ccc(c(Cl)c3)Oc3cc2cc(c3O[C@@H]2O[C@H](CO)[C@@H](O)[C@H](O)[C@H]2O[C@H]2C[C@](C)(N)[C@H](O)[C@H](C)O2)Oc2ccc(cc2Cl)[C@H]1O` [Vancomycin, reference compound], the MIC [1] was 0.5 µg/mL (≈ 0.345 µM), the MIC [2] was > 128 µg/mL and the MIC [3] was 0.5 µg/mL (≈ 0.345 µM). For the same compound, the MIC [4] was 1 µg/mL (≈ 0.69 µM), the MIC [5] was > 128 µg/mL and the MIC [6] was 1 µg/mL (≈ 0.69 µM). The MIC [7] was 1 µg/mL (≈ 0.69 µM) and the MIC [8] was > 128 µg/mL.
